In PubChem BioAssay AID1347076 (National Center for Advancing Translational Sciences (NCATS), 2019):
The whole screen tested about 400,000 compounds, of which about 13,000 (3.2%) were called active. The shares of active, inactive and inconclusive entries below differ from those in the screen. Calls follow the shape of the dose curve; as a rule, active = well fitted cell-killing curve with a large enough effect; inconclusive = small, poorly fitted or top-dose-only effect, or effect the other way; inactive = flat fitted curve, though single readings scatter. A potency beside an inconclusive call is a rough fit, not a confirmed value.

Assay: qHTS assay for MDR1-selective chemotherapeutics: Primary screen using the drug-selected MDR subline cells KB-V1; also: nearly all actives have a fitted effect of over 60% in size
Conditions: KB-V1 MDR cells viability, CellTiter-Glo, 72 h; series mostly up to 46.1 µM
Summary of the method: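 Cells of the MDR subline KB-V1 are plated, dosed with compound at multiple concentrations, and incubated 72 h at 37 degrees C; CellTiter-Glo is then added and luminescence read after 10 min.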
Potency is read from the fitted curve at half-maximal effect.

Row | SMILES | Potency
1 | COc1ccccc1/C=C/C(=O)c1cc(Br)ccc1OC(=O)c1ccco1 | inconclusive: 29.1 µM [cytotoxic, single point]
2 | CC(=O)c1ccc(NC(=O)c2ccc(COc3ccccc3[N+](=O)[O-])o2)cc1 | active: 10.3 µM
3 | O=C(Nc1ccccc1Br)C(Cc1ccccc1)NS(=O)(=O)c1cccc2nsnc12 (stereo not drawn) | inactive
4 | Cc1ccc(NC(=O)CN2C(=O)NC3(CCC(C)CC3)C2=O)c(Cl)c1 (stereo not drawn) | active: 18.4 µM
5 | CC(C)(C)c1ccc(/C=C2/SC(N3CCCC3)=NC2=O)cc1 | inconclusive: 23.1 µM [cytotoxic, single point]
6 | Cc1ccc(Cn2c(=N)n(CC(O)c3ccco3)c3ccccc32)cc1 (stereo not drawn) | inconclusive: 25.9 µM [cytotoxic, single point]
7 | COc1ccccc1N1CCN(c2ccc(-c3ccccc3)nn2)CC1 | active: 2.06 µM
8 | CN(C)/C=C(\C#N)S(=O)(=O)C(C)(C)C | inactive
9 | CC(C)OC(=O)/C(=C\c1cccc2ccccc12)NC(=O)c1ccccc1 | inconclusive: 4.61 µM [cytotoxic, full curve]
10 | COc1ccc(C2=NCC(CSc3nnnn3C)S2)cc1 (stereo not drawn) | inconclusive: 32.6 µM [cytotoxic, single point]
11 | Cc1cc(C)cc(OCc2nc3ncc(Br)cc3[nH]2)c1 | active: 1.03 µM
12 | O=C(Oc1ccc(Cl)c2ccccc12)N1CCCCC1 | inconclusive: 29.1 µM [cytotoxic, single point]
13 | Cc1cc(NC(=O)CSc2nc3ccccc3n2CCC#N)no1 | inactive
14 | COc1cccc(-n2c(SCC(=O)NCCc3ccccc3)nnc2-c2ccoc2C)c1 | inconclusive: 13 µM [cytotoxic, partial curve, poor fit]
15 | CCC(=O)N1CCN(c2ccc(NC(=O)c3ccco3)cc2Cl)CC1 | inconclusive: 18.4 µM [cytotoxic, single point]
16 | O=C1NC[C@H](CCCCN2C[C@H](Cc3ccc(O)cc3)N(CC3CCCCC3)C(=O)C2=O)N(CCC2CCCCC2)C1=O | inconclusive: 16.4 µM [rising, single point]
17 | CCC1(c2ccc(Cl)cc2)NC(=O)N(Cc2ccc(C(=O)OC)cc2)C1=O (stereo not drawn) | inconclusive: 20.6 µM [cytotoxic, partial curve]
18 | CS(=O)(=O)c1ccc(Cl)c(NC(=O)c2cccc(Br)c2)c1 | inconclusive: 29.1 µM [rising, single point]
19 | CCOc1ccc(C)cc1S(=O)(=O)N1CCCCC1 | inconclusive: 18.4 µM [cytotoxic, partial curve, poor fit]
20 | CC1(C(=O)NCCC#N)CCN1C(=O)c1ccccc1CCc1ccccc1 (stereo not drawn) | inactive
21 | CC(O)CN1C(=O)C(CC(=O)Nc2ccc(Cl)cc2)SC1=Nc1ccccc1 (stereo not drawn) | inconclusive: 20.6 µM [cytotoxic, single point]
22 | Cc1ccc(S(=O)(=O)N2CCCCC2)cc1NC(=O)c1cccs1 | inactive

Molecules shown so far containing two or more sulfur atoms, in the order listed:
Row | SMILES | Potency
3 | O=C(Nc1ccccc1Br)C(Cc1ccccc1)NS(=O)(=O)c1cccc2nsnc12 (stereo not drawn) | inactive
10 | COc1ccc(C2=NCC(CSc3nnnn3C)S2)cc1 (stereo not drawn) | inconclusive: 32.6 µM [cytotoxic, single point]
22 | Cc1ccc(S(=O)(=O)N2CCCCC2)cc1NC(=O)c1cccs1 | inactive

Following part.

Row | SMILES | Potency
23 | COc1ccc(Nc2cc(C)c3ccccc3n2)cc1 | inactive
24 | Cc1ccc(C)c(N2CCN(C(=O)c3cccn4c(=O)c5sccc5nc34)CC2)c1 | inconclusive: 18.4 µM [cytotoxic, single point]
25 | CCC(=O)NNC(=S)NC(=O)c1ccc(C)cc1 | inconclusive: 18.4 µM [cytotoxic, partial curve, poor fit]
26 | COc1cc(Cl)c(NS(=O)(=O)c2ccc(-c3cnc(C4CC4)o3)cc2)c(OC)c1 | active: 1.03 µM
27 | CC(=O)c1c(O)c(C)c(O)c2c1OC1=Cc3c(c(C)nn3C)C(=O)C12C (stereo not drawn) | inconclusive: 20.6 µM [cytotoxic, partial curve]
28 | O=C(CN1c2cccc3cccc(c23)S1(=O)=O)NCc1ccc2c(c1)OCO2 | inconclusive: 10.3 µM [cytotoxic, partial curve, poor fit]
29 | CCC(C)(C)NC(=O)COc1ccc(C(=O)c2ccccc2)cc1 | inconclusive: 14.6 µM [rising, partial curve, poor fit]
30 | COc1cccc(C(=O)c2c(C)c(CCC#N)n3ccccc23)c1OC | inconclusive: 5.17 µM [cytotoxic, partial curve]
31 | Clc1cccc(OCCn2cncn2)c1Cl | inactive
32 | CCc1ccc([C@@H]2CC=C(C(=O)O)[C@H](c3cccc(Cl)c3)N2S(=O)(=O)c2ccc(C)cc2)cc1 | inconclusive: 5.17 µM [rising, partial curve, poor fit]
33 | COc1ccc(CNC(=O)CSc2nc(-c3ccc(OC)c(OC)c3)cc(C(F)(F)F)n2)cc1 | inactive
34 | CCC(=O)c1ccc(-c2ccccc2)cc1 | inconclusive: 20.6 µM [rising, single point]
35 | COc1cccc(CNc2nc(NCC3CC3)nc3ccsc23)c1 | inconclusive: 4.11 µM [cytotoxic, full curve, poor fit]
36 | CCCc1ccc(-c2ccc(C(=O)Oc3ccc(OCC)cc3)cc2)nc1 | inconclusive: 20.6 µM [rising, single point]
37 | Cc1nc2nc(SCC(=O)C(C)(C)C)[nH]c2cc1Br | inconclusive: 23.1 µM [cytotoxic, single point]
38 | Cc1nc2cc(F)ccc2n1C1CCN(C(=O)c2c(F)cccc2F)CC1 | inconclusive: 29.1 µM [cytotoxic, single point]
39 | CC(C)CCNC(=O)C(c1ccco1)N(Cc1cccs1)C(=O)Cn1nnc2ccccc21 (stereo not drawn) | active: 5.17 µM
40 | Nn1c(Cc2cccc3ccccc23)nnc1SCCOc1ccc(Br)cc1 | inconclusive: 29.1 µM [cytotoxic, single point]
41 | C[C@@H]1CN([C@@H](C)CO)C(=O)CCCn2nncc2CO[C@@H]1CN(C)S(=O)(=O)c1ccc(Oc2ccccc2)nc1 | inconclusive: 1.64 µM [rising, partial curve, poor fit]
42 | CCCC[C@H]1C2=C3[C@@H](CC(C(=O)OC)=C[C@@H](C(=O)OC)[C@H]3C(C)(C)C2=O)n2c(=O)n(-c3ccccc3)c(=O)n21 | inconclusive: 18.4 µM [rising, partial curve, poor fit]
43 | N#Cc1cnn(Cc2ccccc2)c1N | inconclusive: 29.1 µM [rising, single point]
